{"source": "PubChem BioAssay AID652243 – Drosophila RNAi Screening Center – 2013", "assay": "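Fly genes required for human androgen receptor driven transcription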 (primary screen)", "cell system": "Drosophila S2R+ cells", "reagents": "long dsRNA against Drosophila genes", "time to read-out": "72 h (48 h, then 24 h hormone)", "conditions": "synthetic androgen R1881 at 10 nM for 24 h", "measured": "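Per-well raw luminescence of the androgen-driven firefly reporter and of the Renilla control, two replicates each, without normalisation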", "direction": "firefly reporter light: higher = more light from androgen-responsive reporter; Renilla control light: higher = more constitutive control signal (cell number, transfection)", "call rule": "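Across duplicate plates, a knock-down whose log firefly/Renilla ratio shifted a set fold down or up from the GFP/LacZ control mean was a hit; the downward cut appears as both 1.5 and 3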", "meaning of the calls": "active = hit: reporter lowered or raised; inactive = no hit", "note": "The screen tested about 24,000 reagents; shown is an unselected part of those with a known target gene and a result. In the full data, 246 (1%) were called active. 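Plates not normalised; calls are printed but the firefly/Renilla ratio behind them is not deposited; fold cut for lowering reported inconsistently.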 Raw values vary from plate to plate and are shown uncorrected. Reagents against one gene are numbered here. Not given: the amount of reagent."}
{"gene":"CG30291","dsRNA no.":1,"firefly reporter light, replicate 1":3.94e5,"firefly reporter light, replicate 2":4.00e5,"Renilla control light, replicate 1":1.13e6,"Renilla control light, replicate 2":1.27e6,"call":"inactive"}
{"gene":"CG12158","dsRNA no.":1,"firefly reporter light, replicate 1":4.04e5,"firefly reporter light, replicate 2":7.35e5,"Renilla control light, replicate 1":8.60e5,"Renilla control light, replicate 2":1.60e6,"call":"inactive"}
{"gene":"CG15317","dsRNA no.":1,"firefly reporter light, replicate 1":2.46e5,"firefly reporter light, replicate 2":2.39e5,"Renilla control light, replicate 1":2.63e6,"Renilla control light, replicate 2":2.64e6,"call":"inactive"}
{"gene":"CG15317","dsRNA no.":2,"firefly reporter light, replicate 1":2.73e5,"firefly reporter light, replicate 2":2.97e5,"Renilla control light, replicate 1":7.12e5,"Renilla control light, replicate 2":5.99e5,"call":"inactive"}
{"gene":"Agpat2","dsRNA no.":1,"firefly reporter light, replicate 1":9.85e5,"firefly reporter light, replicate 2":6.10e5,"Renilla control light, replicate 1":1.23e6,"Renilla control light, replicate 2":7.82e5,"call":"inactive"}
{"gene":"Agpat2","dsRNA no.":2,"firefly reporter light, replicate 1":7.08e5,"firefly reporter light, replicate 2":4.96e5,"Renilla control light, replicate 1":2.43e6,"Renilla control light, replicate 2":1.33e6,"call":"inactive"}
{"gene":"CG34275 (retired record)","dsRNA no.":1,"firefly reporter light, replicate 1":5.59e5,"firefly reporter light, replicate 2":3.96e5,"Renilla control light, replicate 1":1.28e6,"Renilla control light, replicate 2":5.91e5,"call":"inactive"}
{"gene":"CG31140","dsRNA no.":1,"firefly reporter light, replicate 1":1.23e5,"firefly reporter light, replicate 2":1.07e5,"Renilla control light, replicate 1":1.20e6,"Renilla control light, replicate 2":1.26e6,"call":"active"}
{"gene":"CG31140","dsRNA no.":2,"firefly reporter light, replicate 1":1.46e5,"firefly reporter light, replicate 2":2.01e5,"Renilla control light, replicate 1":2.81e6,"Renilla control light, replicate 2":2.56e6,"call":"inactive"}
{"gene":"CG31140","dsRNA no.":3,"call":"inactive"}
{"gene":"CG13324","dsRNA no.":1,"firefly reporter light, replicate 1":3.64e5,"firefly reporter light, replicate 2":2.81e5,"Renilla control light, replicate 1":1.07e6,"Renilla control light, replicate 2":1.57e6,"call":"inactive"}

Records listed above marked active (1):
{"gene":"CG31140","dsRNA no.":1,"firefly reporter light, replicate 1":1.23e5,"firefly reporter light, replicate 2":1.07e5,"Renilla control light, replicate 1":1.20e6,"Renilla control light, replicate 2":1.26e6,"call":"active"}

The listing continues:
{"gene":"CG11885","dsRNA no.":1,"firefly reporter light, replicate 1":5.26e5,"firefly reporter light, replicate 2":6.39e5,"Renilla control light, replicate 1":2.01e6,"Renilla control light, replicate 2":3.02e6,"call":"inactive"}
{"gene":"MED19","dsRNA no.":1,"firefly reporter light, replicate 1":11384,"firefly reporter light, replicate 2":4593,"Renilla control light, replicate 1":4.65e5,"Renilla control light, replicate 2":2.15e5,"call":"active"}
{"gene":"MED19","dsRNA no.":2,"firefly reporter light, replicate 1":4.12e5,"firefly reporter light, replicate 2":4.08e5,"Renilla control light, replicate 1":3.91e5,"Renilla control light, replicate 2":4.74e5,"call":"inactive"}
{"gene":"MED19","dsRNA no.":3,"firefly reporter light, replicate 1":2.28e5,"firefly reporter light, replicate 2":2.23e5,"Renilla control light, replicate 1":1.08e6,"Renilla control light, replicate 2":9.59e5,"call":"active"}
{"gene":"Abcd3","dsRNA no.":1,"firefly reporter light, replicate 1":2.64e5,"firefly reporter light, replicate 2":1.77e5,"Renilla control light, replicate 1":1.20e6,"Renilla control light, replicate 2":5.97e5,"call":"inactive"}
{"gene":"Abcd3","dsRNA no.":2,"firefly reporter light, replicate 1":4.63e5,"firefly reporter light, replicate 2":4.61e5,"Renilla control light, replicate 1":1.01e6,"Renilla control light, replicate 2":1.01e6,"call":"inactive"}
{"gene":"CG17650","dsRNA no.":1,"firefly reporter light, replicate 1":1.25e5,"firefly reporter light, replicate 2":1.00e5,"Renilla control light, replicate 1":8.91e5,"Renilla control light, replicate 2":9.79e5,"call":"inactive"}
{"gene":"mRpL30","dsRNA no.":1,"firefly reporter light, replicate 1":3.64e5,"firefly reporter light, replicate 2":4.54e5,"Renilla control light, replicate 1":3.45e6,"Renilla control light, replicate 2":4.10e6,"call":"inactive"}
{"gene":"mRpL30","dsRNA no.":2,"firefly reporter light, replicate 1":3.55e5,"firefly reporter light, replicate 2":4.23e5,"Renilla control light, replicate 1":6.43e5,"Renilla control light, replicate 2":6.08e5,"call":"inactive"}
{"gene":"CG33325","dsRNA no.":1,"firefly reporter light, replicate 1":96757,"firefly reporter light, replicate 2":1.73e5,"Renilla control light, replicate 1":1.27e5,"Renilla control light, replicate 2":1.01e5,"call":"inactive"}
